# Reference: PubChem BioAssay AID1347423 (Functional Genomics Laboratory (NCATS/FGL), 2020)
# Out of some 52,000 sequences screened, about 210 (0.4%) were called active.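 How the source made its calls: active means gene whose silencing raises cell survival under the drug, median off-target-corrected z-score across its silencing RNAs 2 or more; inactive means the rest.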 This is one part of the list.
# Assay: Resistance to Poly (ADP-Ribose) Polymerase inhibitor: Gene Identification via Genome-wide siRNA Screen
# Conditions: mouse BRCA2 R2336H ES cells, olaparib, CellTiter-Glo viability; active compounds read high
# In short: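 Genome-wide siRNA screen (3 siRNAs/gene, 20 nM) in mouse ES cells carrying hypomorphic BRCA2 R2336H; olaparib 500 nM added 48 h post-transfection, CellTiter-Glo viability 72 h later. Normalized to plate-median negative control; MAD z-scores, gene median, seed-adjusted.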
row,Sequence,z-score
1,GGUUGUAGAACAUGAGUUATT against Fcmd,inactive: 1.85
2,CCAAGAGAUUGCUAAUUGCTT against Cbfa2t1h,inactive: 0.739
3,GGGAGGAUGAACAUCAAAGTT against Lace1,inactive: 1.43
4,GCACAAGAUGUGAAGAUUATT against 1110006I15Rik,inactive: 0.355
5,GCUGUAAAACCUGUCGUAATT against Mt4,inactive: 0.196
6,GGAAAGAAUUGAAUACUCGTT against Gpr89,inactive: 0.335
7,GGACUCAGCAACAGGUCUUTT against Ors6,inactive: -1.34
8,GCAGCUCACCAUCCUUCAATT against Fcnb,inactive: 1.18
9,GGCCAACCUACUUUUCUGGTT against Mgll,inactive: 0.668
10,GCCAGAAGGACCUCUUCACTT against Arhgap24,inactive: 0.38
11,GGCCUUCACUGAUGAAUGUTT against C87499,inactive: 0.0325
12,CCACGAAUUAAGUAAUGGUTT against Rtl1,inactive: 0.612
13,GCACAAACUUAUGCUCUUUTT against Klrc3,inactive: -0.865
14,GGCAUCUCACUGGAAGUGATT against 2810408E11Rik,inactive: -0.651
15,GGGUUACACAGAGUACAAATT against Snx15,inactive: -1.95
16,GGCUGAGUCUGGCUAACUUTT against Dio3,inactive: -0.066
17,CGACAAUCAGGAGAUUGCATT against Npm3,inactive: -0.0122
18,GGGAAAUUGUAUUCAAUACTT against Cebpz,inactive: 0.657
19,GGCUGUGUGAGUCUGCUCATT against C030011J08Rik,inactive: -0.00521
20,GGGAAGUGGAAACAGUUCUTT against Icam2,inactive: -0.624
21,GGAUCAUCAGUUUCUUUAUTT against 4930486L24Rik,inactive: -0.993
22,GGUGUCCAAGCAGAAGCAGTT against Rab25,inactive: -0.782
23,GGUCUUCCGGAUCUUCAACTT against Adcyap1r1,inactive: 0.433
24,GCAUCUACUAUCCAAGUGATT against Alox15b,inactive: -1.12
25,GGAACUGGAGAUGCACAGCTT against 1110012J17Rik,inactive: -0.386
26,CCAAUUAUCCUUCUGUUACTT against Olfr790,inactive: 0.0345

row,Sequence,z-score
1,GGGAAGAGAAACACAGAUGTT against 2410146L05Rik,inactive: 0.589
2,GGUAUGAACACUUUCAAAATT against Olfr297,inactive: 0.543
3,CGACGAACCUGAGUAUAUUTT against Canx,inactive: -0.253
4,GGAAGAAACUGGAAAGAUUTT against Ankrd23,inactive: -0.154
5,GGAAGAAUCACCAUUGAAGTT against Plcz1,inactive: 1.61
6,CGUUGUGAGGUUAUACGACTT against 2810442O16Rik,inactive: 0.687
7,CGAGUUCAUCAAAAAGGAATT against 1110028C15Rik,inactive: -0.0939
8,GGAACAAGUCUUCAACUCATT against Wap,inactive: -0.593
9,GGCCUUUUUGCCACGUAUGTT against Dhrs3,inactive: 2.34
10,GCUCUAGAAAGUUACAGAUTT against Crtam,inactive: -0.162
11,GGAAAAGCUAAUAAAAGCUTT against Ptgis,inactive: -0.54
12,GCUUCCACGUGUUUGACCATT against Hsf1,inactive: 0.983
13,GGAACACUGGAUUAUUGAGTT against Gamt,inactive: -0.0518
14,GGAGUAUGUCAAUUAGCAUTT against V1re1,inactive: 0.715
15,GGUCAACCUAAACCAGCAGTT against Csng,inactive: -1.91
16,CCUAGAGCGUGCCCUAGAATT against 2310066I18Rik,inactive: 0.0379
17,GGGAGAAAUGCAAAUAUUUTT against Mbnl2,inactive: 1.49
18,GGUUCUCAUAACGACCAAUTT against Ddx25,inactive: 0.142
19,GGGAUGAAUAUUUGUGUCATT against D130060H24Rik,inactive: 0.0958
20,GGGAGUAUCCAUUCAAGCCTT against Ube2l6,inactive: 1.05
21,GGCGACAUUCUCAUCCUAATT against Slc38a1,inactive: 1.37
22,CCAAGACCCAAACUUACUGTT against Tnnt3,inactive: -1.21
23,GGAAAUGCCACCAAAGAACTT against 9330158F14Rik,inactive: -0.618
24,GCCAUAGAGUAUCAGCUGATT against 4930506L13Rik,inactive: -0.581
25,GGAUUCUGUUCAACAUUGGTT against Olfr1148,inactive: 0.536
26,GCAGUAACGAGGUUUUGAUTT against C030048B08Rik,inactive: -0.239

row,Sequence,z-score
1,GGAACUGAAAAAGAAAACATT against 2400003C14Rik,inactive: -0.222
2,GCCUAGCUUUCUUGUAUUATT against Tas2r144,inactive: -0.692
3,CGACUUCGCCUUAUGAGAUTT against Tst,inactive: -1.35
4,GGAAAACCAGCUAAUUAUCTT against Ptger3,inactive: 1.22
5,GGUGGUCUGAUCGUAGACATT against BC027309,inactive: 0.849
6,GGAGACUGCUUCUAAAGAUTT against 1810073G14Rik,inactive: -0.499
7,GCUGGAGGGAUGCGAAUCUTT against 2310032F03Rik,inactive: 0.199
8,GGCCUCUUCCUGCUUCUUATT against 1810021J13Rik,inactive: 0.499
9,GCUCUGCCUUCAGAUGAUCTT against Olfr172,inactive: 1.16
10,CCAUCCUUCCAAUUAUGAATT against Rhot1,inactive: 0.21
11,GGAAAAGGCUACGGCAUUUTT against Tapbp,inactive: -0.271
12,CCUACAGAAUAGAAAAUUCTT against 9830169G11Rik,inactive: 0.438
13,GGAGGAUACACAGAGGCAUTT against Tcap,inactive: 0.472
14,GCAAAGAUCCAAAUAUUGUTT against Grp58,inactive: 0.335
15,CCGUCACAAUAGUCUCUGATT against 1300007F04Rik,inactive: -1.88
16,CGCGCAGUUUGAAAACUAUTT against 8-Sep,inactive: 0.0261
17,GGUUCCGAAUGGAGACUUGTT against 1700006H02Rik,inactive: -1.15
18,GCCAUGUUAACAUGAUGAUTT against AI595366,inactive: -0.698
19,GGGAGCUCCUUACAGAGACTT against 1700041G16Rik,inactive: 0.482
20,GCUGCUCAAUCGGAAAUACTT against Clk1,inactive: -0.495
21,GGGCCAUCCUUUGGUUACATT against Dtnb,inactive: -1.06
22,GCGGUUCUAAGGAUACCGATT against Txnl5,inactive: 0.645
23,CGCCUCUAACUUAAUGUUUTT against Dnajc8,inactive: -0.328
24,GCCUCAGACAGACUUCUUGTT against 2400006N03Rik,inactive: -2.29
25,GCCGAAGAACUAAAAGACUTT against Cyb5,inactive: -0.204
26,GCGACAAAUCAAAAAGGCCTT against Dnajb9,inactive: 0.296

row,Sequence,z-score
1,GGAACACAAUGGAGACACATT against Prdm15,inactive: 2.01
2,GGAACAGUCGUGGUAAAGUTT against BC003262,inactive: -3.45
3,GGCAGAGAAAACAAGAUUATT against Arc,inactive: 0.321
4,GGACAGCCACCCAUCUGAATT against 1210002B07Rik,inactive: -0.719
5,GGCUGACAGUAACAAGUGGTT against Fignl1,inactive: -2.11
6,GGCGAACACCAUGAAAAGGTT against Lin7b,inactive: -1.39
7,GGUUAUGGUUUUGUUGACUTT against Rbms1,inactive: 0.699
8,CGAGUAAAAGAGAUCUACATT against Eya1,inactive: 0.0596
9,GGCAAUACAAACAAGUUCUTT against Klhdc2,inactive: 0.488
10,GCCGUUGGUCGUGUUCGUUTT against 0610011D08Rik,inactive: -0.774
11,GGAGGAAAGACGAAUCAACTT against Clcn7,inactive: -0.795
12,GGCAAAAAGAAGCUGAUGATT against 2900036G02Rik,inactive: 0.939
13,CCCUUACAUCACACAGGACTT against BC005764,inactive: 2.21
14,GGAGUUCCUCAAGAAUUUUTT against Arpc4,inactive: 0.81
15,AACCGAACUGAUAAGAACUTT against Bag5,inactive: -0.155
16,GCUUUAAGUCGUAAUCUAGTT against Ank,inactive: 1.47
17,GGCUUUCUUUGUCUUCUCCTT against Adcy3,inactive: -0.754
18,GGUGCUAAAGGAGCUUCUGTT against Commd4,inactive: -1.84
19,CCCAGAAUAGAGGAGAACATT against 4933427D14Rik,inactive: 0.0843
20,CCCUAACUGUAUGGACCAUTT against D11Ertd99e,inactive: 1.51
21,GGGAAAGCAUCGUAGACUCTT against Cri2,inactive: 1.05
22,GCUAUUUCUGCCUUUAGUCTT against Scamp5,inactive: 0.591
23,GACCUUGGUUAUUCUACAGTT against Olfr1087,inactive: -1.8
24,GCAUGCAGCCUAUGGAUGCTT against LOC545558,inactive: 0.166
25,GGGAGUUGUAGUAUUAGUATT against Zfp94,inactive: 0.571

# Laid out differently: entries from further up.
row | Sequence | z-score
1 | GGUUGUAGAACAUGAGUUATT against Fcmd | inactive: 1.85
4 | GCACAAGAUGUGAAGAUUATT against 1110006I15Rik | inactive: 0.355
6 | GGAAAGAAUUGAAUACUCGTT against Gpr89 | inactive: 0.335
12 | CCACGAAUUAAGUAAUGGUTT against Rtl1 | inactive: 0.612
14 | GGCAUCUCACUGGAAGUGATT against 2810408E11Rik | inactive: -0.651
15 | GGGUUACACAGAGUACAAATT against Snx15 | inactive: -1.95
19 | GGCUGUGUGAGUCUGCUCATT against C030011J08Rik | inactive: -0.00521
25 | GGAACUGGAGAUGCACAGCTT against 1110012J17Rik | inactive: -0.386
3 | CGACGAACCUGAGUAUAUUTT against Canx | inactive: -0.253
5 | GGAAGAAUCACCAUUGAAGTT against Plcz1 | inactive: 1.61
12 | GCUUCCACGUGUUUGACCATT against Hsf1 | inactive: 0.983
14 | GGAGUAUGUCAAUUAGCAUTT against V1re1 | inactive: 0.715
16 | CCUAGAGCGUGCCCUAGAATT against 2310066I18Rik | inactive: 0.0379
19 | GGGAUGAAUAUUUGUGUCATT against D130060H24Rik | inactive: 0.0958
20 | GGGAGUAUCCAUUCAAGCCTT against Ube2l6 | inactive: 1.05
24 | GCCAUAGAGUAUCAGCUGATT against 4930506L13Rik | inactive: -0.581
26 | GCAGUAACGAGGUUUUGAUTT against C030048B08Rik | inactive: -0.239
2 | GCCUAGCUUUCUUGUAUUATT against Tas2r144 | inactive: -0.692
6 | GGAGACUGCUUCUAAAGAUTT against 1810073G14Rik | inactive: -0.499
7 | GCUGGAGGGAUGCGAAUCUTT against 2310032F03Rik | inactive: 0.199
10 | CCAUCCUUCCAAUUAUGAATT against Rhot1 | inactive: 0.21
12 | CCUACAGAAUAGAAAAUUCTT against 9830169G11Rik | inactive: 0.438
14 | GCAAAGAUCCAAAUAUUGUTT against Grp58 | inactive: 0.335
15 | CCGUCACAAUAGUCUCUGATT against 1300007F04Rik | inactive: -1.88
18 | GCCAUGUUAACAUGAUGAUTT against AI595366 | inactive: -0.698
19 | GGGAGCUCCUUACAGAGACTT against 1700041G16Rik | inactive: 0.482
22 | GCGGUUCUAAGGAUACCGATT against Txnl5 | inactive: 0.645
6 | GGCGAACACCAUGAAAAGGTT against Lin7b | inactive: -1.39
15 | AACCGAACUGAUAAGAACUTT against Bag5 | inactive: -0.155
17 | GGCUUUCUUUGUCUUCUCCTT against Adcy3 | inactive: -0.754
19 | CCCAGAAUAGAGGAGAACATT against 4933427D14Rik | inactive: 0.0843
25 | GGGAGUUGUAGUAUUAGUATT against Zfp94 | inactive: 0.571
